Reference: PubChem BioAssay AID651664 (NMMLSC, 2012)
Hit rate of the full screen: of about 1,800 compounds, fewer than 10 were called active.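 The calls were made as follows: active = inhibition of granule release above a set limit; inactive = the rest.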 This is one part of the list.

test: inhibitors of lytic granule exocytosis, flow cytometry, TALL-104 cells, validation set (AID 651664); conditions: TALL-104 LAMP-1 externalization, at 15.2 µM, hits give high values, stimulated with thapsigargin and PMA

inhibition, inactive:
COC(=O)Cn1ncn2c(cc3oc(C)cc32)c1=O -1.5%, CCC(Sc1nnnn1C)C(=O)Nc1ccc(C(C)=O)cc1 (stereo not given) 2.8%, CCCNC(=O)CN(C1CCCCC1)S(C)(=O)=O 2.1%, Cc1nc2ccc(F)cc2cc1C(=O)NCC1CCCO1 (stereo not given) -2.9%, C/C=C(\C)CN1CCN(c2ccc(C)cc2)CC1 -1.7%, O=c1cc(CN2CCN(c3cccc(Cl)c3)CC2)c2cc(O)c(-c3ccccc3)cc2o1 1.5%, Cc1ccc(CCN2CC(C(=O)NC3CCCC3)CC2=O)cc1 (stereo not given) 0.7%, COc1ccccc1C(=O)Nc1nc2nc(-c3ccccc3)cc(=O)n2[nH]1 0.2%, Cc1cc2c(cc1C)NC(c1nc3ccccc3[nH]1)C1=C(CC(C)(C)CC1=O)N2 (stereo not given) -3.1%, CN(Cc1ccccc1)C(=O)C1CCCN(Cc2ccc(Cl)cc2)C1 (stereo not given) -1.9%, CCOC(=O)CSc1ncnc2c1sc1nc(N3CCOCC3)c3c(c12)CCCC3 0.1%, COc1ccc(OC)c(C(=O)c2coc3ccc(OC)cc23)c1 -3.2%, Cn1c(NN)nc2sc3c(c2c1=O)CCC3 1.1%, COn1c(SCC(N)=O)nc2ccccc2c1=O -1.7%, COc1ccc(-c2csc3nc(C)n(-n4cccc4)c(=O)c23)cc1 -0.7%, Cc1ccc2c(c1)cc1c(=O)[nH]ncn12 -2.8%, Cc1cccc(C)c1NC(=O)N1CCC(N2CCCCC2)CC1 9%, COc1ccc(/C=C/C(=O)Oc2ccc(/C=N/NC(=O)COc3c(C)cccc3C)cc2)cc1 -1.2%, O=C(NCc1ccc2c(c1)OCO2)c1ccc2snnc2c1 -0.7%, CCOC(=O)c1nnc2cc(-c3ccc(Br)cc3)nn2c1C 0%, O=C(COc1ccc(Cl)cc1)NCCCn1ccnc1 2%, COc1ccc(C2CC(c3c(-c4ccccc4)c4cc(Cl)ccc4[nH]c3=O)=NN2S(C)(=O)=O)cc1 (stereo not given) 5.3%, COc1ccc(Nc2nc(C)cc(C)c2C(N)=O)cc1 1.3%, O=C(COc1ccc(F)cc1)c1ccc2c(c1)CCCC2 -2.8%, CCn1c(N)c(C(=O)NCCOC)sc1=S 0%, O=C(CSc1nc2ccccc2[nH]1)N1CCN(S(=O)(=O)c2ccc(Cl)cc2)CC1 -3.2%, Cc1ccc(-n2nnnc2Sc2nc([N+](=O)[O-])nn2C)c(C)c1 -2.7%, NS(=O)(=O)c1ccc(N2N=C(c3ccccc3)CC2c2ccc(F)cc2)cc1 (stereo not given) -1.9%, C1=C(c2ccccc2)Nc2nnnn2C1c1cccs1 (stereo not given) 0.7%, CCOC(=O)C1=C(C)OC(N)=C(C#N)C1C1CCCCC1 (stereo not given) -2.6%, Cc1ccc(CSc2nc3c(c(N(C)C)n2)CCCC3)cc1 -0.6%, Cc1ccc2c(c1)C(CCN)C(=O)N2Cc1ccccc1 (stereo not given) -0.2%, CN(c1ccc(OCC(=O)N2CCCCC2)cc1)S(=O)(=O)c1cccs1 -6.7%, c1ccc(-c2cc(-c3nc(-c4ccccn4)no3)c3ccccc3n2)cc1 -0.3%, CN(C)c1nc(-c2ccccc2)cc(C(F)(F)F)c1C#N -1.3%, O=C(Cc1sc(-c2ccccc2Cl)nc1-c1ccccc1)Nc1ccc(F)cc1 0.8%, CCOC(=O)c1nnn(-c2nonc2N)c1-c1ccc(C)cc1 -2.2%, COc1ccc(OC)c(NC(=O)C2CC(=O)N(c3ccc(Br)cc3)C2)c1 (stereo not given) -1.1%, CC(C)(C)c1ccc(C(=O)NCCC(=O)N2CCN(c3ncccn3)CC2)cc1 -3.2%, CCCCN(CCCC)CP(=O)(c1ccccc1)c1ccccc1 0%, COc1ccccc1N1CCN(C(=O)Cn2nc(C(F)(F)F)c3c2CCC3)CC1 0.7%, C1CCc2nnc(-c3nnc4n3CCCCC4)n2CC1 -1%, Cc1cc(N)ccc1N1CCCC1 -0.1%, C=C(C)COc1ccc(-c2n[nH]c(C)c2-c2ccc(OC)cc2)c(O)c1 0.8%, S=c1[nH]c2ccc(Cl)cc2[nH]1 -3.8%, O=C(/C=C/Nc1ccc(F)cc1)c1cccs1 -0.8%, CC1(C)CC(c2csc(N)n2)CCO1 (stereo not given) 0%, CC1=C(C(=O)Nc2ccccc2)C(c2ccncc2)C(C#N)=C(SCC(=O)NC2CC2)N1 (stereo not given) -0.7%, O=C(Nc1cnc2ccccc2c1)C1COc2ccccc2O1 (stereo not given) 2.9%, N#Cc1nc(-c2ccco2)oc1NCc1ccc(F)cc1 -0.7%, COc1ccc2[nH]cc(C(=O)CN3CCCCC3)c2c1 -0.8%, Cc1ccc(S(=O)(=O)NCc2ccncc2)cc1 1.6%, COc1ccc2nc(NC(=O)Cc3cccs3)sc2c1 3.6%, CC(C)(C)c1csc(NC(=O)c2ccc3nccnc3c2)n1 0.8%, O=C(NCCc1ccc(Cl)cc1)C1CCN(C(=O)c2sccc2-n2cccc2)CC1 0.4%, CCNc1nc(OCCNS(=O)(=O)c2cc(C)ccc2C)nc(N(C)C)n1 4.8%, Cc1cccc(/C(N)=N/OC(=O)CCCN2C(=O)c3ccccc3C2=O)c1 1.9%, O=C(COC(=O)c1cccs1)c1ccccc1 -2.8%, O=C(NCC1CCCO1)/C(=C\c1ccco1)NC(=O)c1ccccc1 (stereo not given) -2.2%, CN(C)CCCNC1=CC(=O)OC12CCCCC2 7.3%, COc1ccccc1N(C(=O)c1ccco1)C(C(=O)NC1CCCC1)c1cccnc1 (stereo not given) -0.8%, COc1ccc(OC)c(C2C(C#N)=C(N)Oc3cc(C)[nH]c(=O)c32)c1 (stereo not given) 0.1%, COc1ccc(N/N=C(/C#N)S(=O)(=O)c2nsc(C)c2C#N)cc1 0.9%, COc1cccc(C2C(C#N)=C(N)OC(C(C)(C)C)=C2C#N)c1 (stereo not given) 1.2%, CCCCN1CC(C(=O)NC2CCCCC2)CC1=O (stereo not given) -0.7%
